Measurements: article PMC7875385
These are yes or no findings as the source states them, for the method shown. Binding seen in cells or lysates may run through a third protein. Some entries that bind do so weakly or less than the wild type. Where a sequence is shown, tags or fusion partners need not be part of it.

Protein sequences, listed by entry. Tags and fused reporters are not part of them.
UniProt Q15648: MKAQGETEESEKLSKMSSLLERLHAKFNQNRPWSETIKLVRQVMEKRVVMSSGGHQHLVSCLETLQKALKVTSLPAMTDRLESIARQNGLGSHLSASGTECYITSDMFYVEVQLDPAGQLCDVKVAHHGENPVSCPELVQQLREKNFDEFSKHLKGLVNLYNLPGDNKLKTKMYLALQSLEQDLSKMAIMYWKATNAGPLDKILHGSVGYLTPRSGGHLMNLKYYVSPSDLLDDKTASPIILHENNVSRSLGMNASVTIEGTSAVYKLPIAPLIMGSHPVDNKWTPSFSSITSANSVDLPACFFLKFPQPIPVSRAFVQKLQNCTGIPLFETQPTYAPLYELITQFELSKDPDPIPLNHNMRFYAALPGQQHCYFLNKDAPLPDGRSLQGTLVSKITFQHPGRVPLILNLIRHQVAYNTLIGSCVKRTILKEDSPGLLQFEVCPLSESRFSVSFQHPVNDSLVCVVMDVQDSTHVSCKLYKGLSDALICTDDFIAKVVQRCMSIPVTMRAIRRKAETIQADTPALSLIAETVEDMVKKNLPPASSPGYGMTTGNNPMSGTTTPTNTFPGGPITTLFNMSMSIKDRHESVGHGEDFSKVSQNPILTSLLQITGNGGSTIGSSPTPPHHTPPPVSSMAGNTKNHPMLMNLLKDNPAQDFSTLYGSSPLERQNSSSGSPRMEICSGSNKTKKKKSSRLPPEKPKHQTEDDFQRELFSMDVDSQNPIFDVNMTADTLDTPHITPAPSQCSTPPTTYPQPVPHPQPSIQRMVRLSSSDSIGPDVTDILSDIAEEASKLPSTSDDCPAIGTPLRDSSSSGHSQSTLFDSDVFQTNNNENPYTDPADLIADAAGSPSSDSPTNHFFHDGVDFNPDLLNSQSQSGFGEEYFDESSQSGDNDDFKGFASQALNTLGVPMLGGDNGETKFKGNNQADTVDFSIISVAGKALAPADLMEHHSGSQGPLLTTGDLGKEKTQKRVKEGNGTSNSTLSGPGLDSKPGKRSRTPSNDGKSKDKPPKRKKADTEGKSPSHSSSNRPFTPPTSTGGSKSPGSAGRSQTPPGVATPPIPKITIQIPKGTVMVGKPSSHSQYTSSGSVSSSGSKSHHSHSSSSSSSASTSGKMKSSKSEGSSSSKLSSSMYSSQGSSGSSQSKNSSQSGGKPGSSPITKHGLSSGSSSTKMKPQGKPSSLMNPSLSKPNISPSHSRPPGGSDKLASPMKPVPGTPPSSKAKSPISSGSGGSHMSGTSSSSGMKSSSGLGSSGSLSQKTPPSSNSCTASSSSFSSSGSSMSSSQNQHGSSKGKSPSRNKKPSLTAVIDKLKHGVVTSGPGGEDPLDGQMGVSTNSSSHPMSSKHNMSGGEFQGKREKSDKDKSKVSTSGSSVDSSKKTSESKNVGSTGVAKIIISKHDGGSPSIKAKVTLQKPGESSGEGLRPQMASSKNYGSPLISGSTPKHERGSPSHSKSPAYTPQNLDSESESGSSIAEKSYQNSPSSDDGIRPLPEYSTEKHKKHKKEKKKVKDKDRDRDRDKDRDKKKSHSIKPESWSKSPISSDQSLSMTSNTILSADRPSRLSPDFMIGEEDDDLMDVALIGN

Molecular target: T1, FLAG-tagged MED19 (MYC- and FLAG-tagged MED19 stably overexpressed in LNCaP cells) (UniProt A0JLT2)
T1 sequence: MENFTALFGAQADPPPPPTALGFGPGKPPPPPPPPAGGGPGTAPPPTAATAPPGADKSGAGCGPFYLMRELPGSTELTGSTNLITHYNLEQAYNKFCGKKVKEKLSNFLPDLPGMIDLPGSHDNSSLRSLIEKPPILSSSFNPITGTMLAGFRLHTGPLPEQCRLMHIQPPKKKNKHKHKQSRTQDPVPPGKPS
Assay: co-IP; MED19 LNCaP and control LNCaP cells in androgen-containing media, lysed with RIPA buffer; FLAG-tagged MED19 immunoprecipitated with FLAG antibody coupled to protein A/G agarose beads; blots for MYC, AR and MED1

- binding: binds
Substance: Mediator subunit MED1 (from UniProt Q15648 1-1581)
